# Laboratory results from the supplement of paper PMC8728848.
# This is one part of the list.
# B1: GS13814A-bth-462-26-462 (Bacteroides thetaiotaomicron) (protein)
# chain: DDRDNLMVNDQIGLLHSTYTETEIFRGMDTPYQLFVIKSGKGKQETEVSISVDETVLQSYNTDNGTSIQLLPSDCYTILQPALRLNDSDYRKAFDIKWNADRLSDLLSTGKEYGLPIQMSVVQNFISADDERLKTIIVPTIKEPYLQMDVPGMSPVTDFMPTFGDLNERELFVKIRTNYSNDEDISFQIEVDPQLVIDYNTAHGTAYKMLPESSFTVDNKGVILTGMKETFIKIKYHKKGLIPEEGTYLFGDYVLPLRITSVSKYGISPDAASKLYTVKFQPDPIDKKGWSVIDFNNCCTQDGGWYLNMGWGVESLIDNNPGTQWLCRWDVKEPLPYYFVFDMGKEYTLFRFGFANPVAPAAHVWAGTSKAGYVEASIDNENWVKLKDWTSPKIGEPNVNMDVPATQARYIRFVITDTYPTYDGLRVSLGEVYAWGM
# What was measured:
# Experiment in all cases: glycan array binding signal (z-score within array); higher = stronger binding
# Conditions in all cases: glycan notation: IUPAC condensed, linker removed
# [1] = target: Fuc(a1-2)[Gal(a1-4)]Gal(b1-4)GlcNAc
# Summary of the method: (§1)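 Negative Z-scores can be read as non-binding. The Z-score is calculated within each array and then averaged across arrays of one protein sequence at different concentrations or buffers and across linkers. Arrays, 3228 in all, were curated from the Consortium for Functional Glycomics database and kept only where the protein sequence was available.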
# [2] = target: Fuc(a1-2)[GalNAc(a1-3)]Gal
# Summary of the method: as §1
# [3] = target: Fuc(a1-2)[GalNAc(a1-3)]Gal(b1-3)GalNAc(a1-3)[Fuc(a1-2)]Gal(b1-4)GlcNAc
# Summary of the method: as §1
# [4] = target: Fuc(a1-2)[GalNAc(a1-3)]Gal(b1-3)GalNAc(b1-3)Gal(a1-4)Gal(b1-4)Glc
# Summary of the method: as §1
# [5] = target: Fuc(a1-2)[GalNAc(a1-3)]Gal(b1-3)GlcNAc
# Summary of the method: as §1
# [6] = target: Fuc(a1-2)[GalNAc(a1-3)]Gal(b1-3)GlcNAc(b1-2)Man(a1-3)[Fuc(a1-2)[GalNAc(a1-3)]Gal(b1-3)GlcNAc(b1-2)Man(a1-6)]Man(b1-4)GlcNAc(b1-4)GlcNAc
# Summary of the method: as §1
# [7] = target: Fuc(a1-2)[GalNAc(a1-3)]Gal(b1-3)GlcNAc(b1-2)Man(a1-3)[Fuc(a1-2)[GalNAc(a1-3)]Gal(b1-3)GlcNAc(b1-2)Man(a1-6)]Man(b1-4)GlcNAc(b1-4)[Fuc(a1-6)]GlcNAc
# Summary of the method: as §1
# [8] = target: Fuc(a1-2)[GalNAc(a1-3)]Gal(b1-3)GlcNAc(b1-3)GalNAc
# Summary of the method: as §1
# [9] = target: Fuc(a1-2)[GalNAc(a1-3)]Gal(b1-3)GlcNAc(b1-6)GalNAc
# Summary of the method: as §1
# [10] = target: Fuc(a1-2)[GalNAc(a1-3)]Gal(b1-4)Glc
# Summary of the method: as §1
# [11] = target: Fuc(a1-2)[GalNAc(a1-3)]Gal(b1-4)GlcNAc
# Summary of the method: as §1
# [12] = target: Fuc(a1-2)[GalNAc(a1-3)]Gal(b1-4)GlcNAc(b1-2)Man
# Summary of the method: as §1
# [13] = target: Fuc(a1-2)[GalNAc(a1-3)]Gal(b1-4)GlcNAc(b1-2)Man(a1-3)[Fuc(a1-2)[GalNAc(a1-3)]Gal(b1-4)GlcNAc(b1-2)Man(a1-6)]Man(b1-4)GlcNAc(b1-4)GlcNAc
# Summary of the method: as §1
# [14] = target: Fuc(a1-2)[GalNAc(a1-3)]Gal(b1-4)GlcNAc(b1-2)Man(a1-3)[Fuc(a1-2)[GalNAc(a1-3)]Gal(b1-4)GlcNAc(b1-2)Man(a1-6)]Man(b1-4)GlcNAc(b1-4)[Fuc(a1-6)]GlcNAc
# Summary of the method: as §1
# [15] = target: Fuc(a1-2)[GalNAc(a1-3)]Gal(b1-4)GlcNAc(b1-3)Gal(b1-4)GlcNAc
# Summary of the method: as §1
# [16] = target: Fuc(a1-2)[GalNAc(a1-3)]Gal(b1-4)GlcNAc(b1-3)Gal(b1-4)GlcNAc(b1-3)Gal(b1-4)GlcNAc
# Summary of the method: as §1
# [17] = target: Fuc(a1-2)[GalNAc(a1-3)]Gal(b1-4)GlcNAc(b1-3)GalNAc
# Summary of the method: as §1
# [18] = target: Fuc(a1-2)[GalNAc(a1-3)]Gal(b1-4)GlcNAc(b1-3)[Fuc(a1-2)[GalNAc(a1-3)]Gal(b1-4)GlcNAc(b1-6)]GalNAc
# Summary of the method: as §1
# [19] = target: Fuc(a1-2)[GalNAc(a1-3)]Gal(b1-4)GlcNAc(b1-6)GalNAc
# Summary of the method: as §1
# [20] = target: Fuc(a1-2)[GalNAc(a1-3)]Gal(b1-4)[Fuc(a1-3)]GlcNAc
# Summary of the method: as §1
# [21] = target: Fuc(a1-2)[GalNAc(a1-3)]Gal(b1-4)[Fuc(a1-3)]GlcNAc(b1-3)GalNAc
# Summary of the method: as §1
# [22] = target: Fuc(a1-2)[GalNAc(a1-4)]Gal(b1-4)GlcNAc
# Summary of the method: as §1
# [23] = target: Fuc(a1-2)[GalNAc(b1-3)]Gal
# Summary of the method: as §1
# [24] = target: Fuc(a1-3)GlcNAc
# Summary of the method: as §1
# [25] = target: Fuc(a1-3)[Gal(b1-4)]Glc6S
# Summary of the method: as §1
# [26] = target: Fuc(a1-3)[Gal(b1-4)]GlcNAc
# Summary of the method: as §1
# [27] = target: Fuc(a1-3)[Gal(b1-4)]GlcNAc(b1-2)Man
# Summary of the method: as §1
# [28] = target: Fuc(a1-3)[Gal(b1-4)]GlcNAc(b1-2)Man(a1-3)[Fuc(a1-3)[Gal(b1-4)]GlcNAc(b1-2)Man(a1-6)]Man(b1-4)GlcNAc(b1-4)GlcNAc
# Summary of the method: as §1
# [29] = target: Fuc(a1-3)[Gal(b1-4)]GlcNAc(b1-2)Man(a1-3)[Fuc(a1-3)[Gal(b1-4)]GlcNAc(b1-2)Man(a1-6)]Man(b1-4)GlcNAc(b1-4)[Fuc(a1-6)]GlcNAc
# Summary of the method: as §1
# [30] = target: Fuc(a1-3)[Gal(b1-4)]GlcNAc(b1-3)Gal(b1-3)[Fuc(a1-4)]GlcNAc
# Summary of the method: as §1
# [31] = target: Fuc(a1-3)[Gal(b1-4)]GlcNAc(b1-3)Gal(b1-4)[Fuc(a1-3)]GlcNAc
# Summary of the method: as §1
# [32] = target: Fuc(a1-3)[Gal(b1-4)]GlcNAc(b1-3)Gal(b1-4)[Fuc(a1-3)]GlcNAc(b1-3)Gal(b1-4)[Fuc(a1-3)]GlcNAc
# Summary of the method: as §1
# [33] = target: Fuc(a1-3)[Gal(b1-4)]GlcNAc(b1-3)GalNAc
# Summary of the method: as §1
# [34] = target: Fuc(a1-3)[Gal(b1-4)]GlcNAc(b1-6)GalNAc
# Summary of the method: as §1
# [35] = target: Fuc(a1-3)[Gal(b1-4)]GlcNAc(b1-6)[Gal(b1-3)GlcNAc(b1-3)]Gal(b1-4)Glc
# Summary of the method: as §1
# [36] = target: Fuc(a1-3)[Gal(b1-4)]GlcNAc6S
# Summary of the method: as §1
# [37] = target: Fuc(a1-3)[Gal3S(b1-4)]Glc
# Summary of the method: as §1
# [38] = target: Fuc(a1-3)[Gal3S(b1-4)]GlcNAc
# Summary of the method: as §1
binder,measurement,setting,value
B1,glycan array binding signal (z-score),[1],1.11
same,glycan array binding signal (z-score),[2],0.259
same,glycan array binding signal (z-score),[3],-1.08
same,glycan array binding signal (z-score),[4],1.01
same,glycan array binding signal (z-score),[5],0.611
same,glycan array binding signal (z-score),[6],-0.564
same,glycan array binding signal (z-score),[7],-0.212
same,glycan array binding signal (z-score),[8],0.298
same,glycan array binding signal (z-score),[9],-0.474
same,glycan array binding signal (z-score),[10],0.619
same,glycan array binding signal (z-score),[11],-0.523
same,glycan array binding signal (z-score),[12],-1.02
same,glycan array binding signal (z-score),[13],-0.488
same,glycan array binding signal (z-score),[14],-0.718
same,glycan array binding signal (z-score),[15],0.238
same,glycan array binding signal (z-score),[16],-0.363
same,glycan array binding signal (z-score),[17],-0.276
same,glycan array binding signal (z-score),[18],-0.351
same,glycan array binding signal (z-score),[19],-0.544
same,glycan array binding signal (z-score),[20],1.64
same,glycan array binding signal (z-score),[21],2.42
same,glycan array binding signal (z-score),[22],-0.027
same,glycan array binding signal (z-score),[23],0.724
same,glycan array binding signal (z-score),[24],0.173
same,glycan array binding signal (z-score),[25],-0.89
same,glycan array binding signal (z-score),[26],-0.799
same,glycan array binding signal (z-score),[27],0.981
same,glycan array binding signal (z-score),[28],-0.036
same,glycan array binding signal (z-score),[29],0.09
same,glycan array binding signal (z-score),[30],-0.028
same,glycan array binding signal (z-score),[31],0.142
same,glycan array binding signal (z-score),[32],-0.326
same,glycan array binding signal (z-score),[33],-0.553
same,glycan array binding signal (z-score),[34],0.375
same,glycan array binding signal (z-score),[35],-1.09
same,glycan array binding signal (z-score),[36],0.674
same,glycan array binding signal (z-score),[37],-0.86
same,glycan array binding signal (z-score),[38],1.23

# Rewritten bar-delimited: entries from further up.
binder | measurement | setting | value
B1 | glycan array binding signal (z-score) | [8] | 0.298
same | glycan array binding signal (z-score) | [9] | -0.474
same | glycan array binding signal (z-score) | [10] | 0.619
same | glycan array binding signal (z-score) | [11] | -0.523
same | glycan array binding signal (z-score) | [12] | -1.02
same | glycan array binding signal (z-score) | [13] | -0.488
same | glycan array binding signal (z-score) | [14] | -0.718
same | glycan array binding signal (z-score) | [15] | 0.238
same | glycan array binding signal (z-score) | [16] | -0.363
